No constants are given. Whether binding was seen depends on the method and setting. Binding seen in cells or lysates may run through a third protein. Some entries that bind do so weakly or less than the wild type.
Experiments:
Assay in all cases: co-IP; chromatin replicating in Xenopus egg extract isolated in S-phase (unchallenged, or with aphidicolin and caffeine), complexes released with benzonase and sonication; antibodies (α-Cdc45, α-GINS, α-DONSON, α-TopBP1, α-Treslin) on Dynabeads, 4°C 1-2 h, washes in ANIB100; immunoblot
[1] = biological target: T1, Xenopus laevis DONSON (Xenopus laevis (endogenous in egg extract)) (UniProt Q5U4U4)
T1 sequence: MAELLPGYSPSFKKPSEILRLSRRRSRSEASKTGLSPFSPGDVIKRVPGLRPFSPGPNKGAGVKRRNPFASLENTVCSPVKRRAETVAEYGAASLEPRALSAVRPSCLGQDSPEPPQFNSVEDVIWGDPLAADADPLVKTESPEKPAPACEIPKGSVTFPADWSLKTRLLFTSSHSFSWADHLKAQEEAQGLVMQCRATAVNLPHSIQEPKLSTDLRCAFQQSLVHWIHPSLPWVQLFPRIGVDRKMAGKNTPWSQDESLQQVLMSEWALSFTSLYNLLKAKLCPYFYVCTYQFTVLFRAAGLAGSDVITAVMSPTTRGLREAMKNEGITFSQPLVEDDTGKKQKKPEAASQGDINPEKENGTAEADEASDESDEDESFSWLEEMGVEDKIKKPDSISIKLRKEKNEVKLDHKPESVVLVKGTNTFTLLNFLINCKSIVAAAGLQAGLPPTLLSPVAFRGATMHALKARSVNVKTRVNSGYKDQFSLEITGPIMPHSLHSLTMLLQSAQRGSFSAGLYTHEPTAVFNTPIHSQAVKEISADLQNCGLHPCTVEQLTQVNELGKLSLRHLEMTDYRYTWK

By UniProt entry, the sequences of proteins in these tests, tags left out. Where a name states a change or a piece, a line headed by the entry shows the natural chain unless it says otherwise.
UniProt D3IUT5: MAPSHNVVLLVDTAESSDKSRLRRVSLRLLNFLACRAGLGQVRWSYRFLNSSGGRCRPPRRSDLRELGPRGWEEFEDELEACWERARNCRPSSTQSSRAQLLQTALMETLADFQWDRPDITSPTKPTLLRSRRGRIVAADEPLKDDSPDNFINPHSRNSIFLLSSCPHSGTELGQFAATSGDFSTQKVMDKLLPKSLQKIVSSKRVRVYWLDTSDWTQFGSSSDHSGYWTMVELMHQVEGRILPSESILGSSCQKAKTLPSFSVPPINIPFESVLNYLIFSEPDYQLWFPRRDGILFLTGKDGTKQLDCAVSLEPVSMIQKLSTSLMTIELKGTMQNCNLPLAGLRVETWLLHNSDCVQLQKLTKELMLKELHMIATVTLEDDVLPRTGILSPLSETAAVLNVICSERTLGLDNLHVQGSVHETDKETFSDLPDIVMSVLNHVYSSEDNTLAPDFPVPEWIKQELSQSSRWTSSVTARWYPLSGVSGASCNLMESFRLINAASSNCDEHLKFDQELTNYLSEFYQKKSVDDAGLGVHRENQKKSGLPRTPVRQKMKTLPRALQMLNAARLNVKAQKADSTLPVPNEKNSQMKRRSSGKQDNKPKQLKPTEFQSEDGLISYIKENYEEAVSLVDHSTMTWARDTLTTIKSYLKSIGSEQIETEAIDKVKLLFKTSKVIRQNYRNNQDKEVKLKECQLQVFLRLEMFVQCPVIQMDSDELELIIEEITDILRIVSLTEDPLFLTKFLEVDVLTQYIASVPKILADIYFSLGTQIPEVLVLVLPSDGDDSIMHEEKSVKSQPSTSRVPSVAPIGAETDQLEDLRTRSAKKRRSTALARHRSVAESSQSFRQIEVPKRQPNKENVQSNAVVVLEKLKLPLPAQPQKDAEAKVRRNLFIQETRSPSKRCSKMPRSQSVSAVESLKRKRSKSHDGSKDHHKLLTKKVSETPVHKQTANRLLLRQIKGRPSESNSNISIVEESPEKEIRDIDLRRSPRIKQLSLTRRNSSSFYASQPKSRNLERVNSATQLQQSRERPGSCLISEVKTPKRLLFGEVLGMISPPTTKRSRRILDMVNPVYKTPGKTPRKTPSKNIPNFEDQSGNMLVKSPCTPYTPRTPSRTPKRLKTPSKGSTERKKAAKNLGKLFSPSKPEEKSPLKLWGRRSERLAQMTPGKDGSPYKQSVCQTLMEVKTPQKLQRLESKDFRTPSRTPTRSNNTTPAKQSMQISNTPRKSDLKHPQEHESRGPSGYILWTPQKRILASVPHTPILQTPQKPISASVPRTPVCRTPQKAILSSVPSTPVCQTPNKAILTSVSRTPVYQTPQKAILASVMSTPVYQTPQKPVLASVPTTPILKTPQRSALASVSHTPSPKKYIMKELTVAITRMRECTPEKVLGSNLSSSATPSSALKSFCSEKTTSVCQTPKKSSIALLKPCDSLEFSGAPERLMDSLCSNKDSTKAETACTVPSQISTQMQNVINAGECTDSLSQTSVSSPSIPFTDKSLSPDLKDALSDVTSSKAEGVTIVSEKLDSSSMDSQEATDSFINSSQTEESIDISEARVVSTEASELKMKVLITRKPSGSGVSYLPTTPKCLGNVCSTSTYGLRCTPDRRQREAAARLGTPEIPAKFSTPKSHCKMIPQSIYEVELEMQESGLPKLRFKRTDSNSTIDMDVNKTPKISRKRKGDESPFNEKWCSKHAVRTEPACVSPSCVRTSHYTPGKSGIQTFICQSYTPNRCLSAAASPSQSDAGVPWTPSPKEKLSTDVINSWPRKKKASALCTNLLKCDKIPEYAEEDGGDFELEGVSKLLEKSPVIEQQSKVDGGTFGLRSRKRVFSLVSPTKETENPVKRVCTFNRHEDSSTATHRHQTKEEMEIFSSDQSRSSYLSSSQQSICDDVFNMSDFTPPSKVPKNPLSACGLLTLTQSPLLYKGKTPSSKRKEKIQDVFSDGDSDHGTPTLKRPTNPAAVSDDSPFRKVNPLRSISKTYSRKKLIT
UniProt Q6NRW0: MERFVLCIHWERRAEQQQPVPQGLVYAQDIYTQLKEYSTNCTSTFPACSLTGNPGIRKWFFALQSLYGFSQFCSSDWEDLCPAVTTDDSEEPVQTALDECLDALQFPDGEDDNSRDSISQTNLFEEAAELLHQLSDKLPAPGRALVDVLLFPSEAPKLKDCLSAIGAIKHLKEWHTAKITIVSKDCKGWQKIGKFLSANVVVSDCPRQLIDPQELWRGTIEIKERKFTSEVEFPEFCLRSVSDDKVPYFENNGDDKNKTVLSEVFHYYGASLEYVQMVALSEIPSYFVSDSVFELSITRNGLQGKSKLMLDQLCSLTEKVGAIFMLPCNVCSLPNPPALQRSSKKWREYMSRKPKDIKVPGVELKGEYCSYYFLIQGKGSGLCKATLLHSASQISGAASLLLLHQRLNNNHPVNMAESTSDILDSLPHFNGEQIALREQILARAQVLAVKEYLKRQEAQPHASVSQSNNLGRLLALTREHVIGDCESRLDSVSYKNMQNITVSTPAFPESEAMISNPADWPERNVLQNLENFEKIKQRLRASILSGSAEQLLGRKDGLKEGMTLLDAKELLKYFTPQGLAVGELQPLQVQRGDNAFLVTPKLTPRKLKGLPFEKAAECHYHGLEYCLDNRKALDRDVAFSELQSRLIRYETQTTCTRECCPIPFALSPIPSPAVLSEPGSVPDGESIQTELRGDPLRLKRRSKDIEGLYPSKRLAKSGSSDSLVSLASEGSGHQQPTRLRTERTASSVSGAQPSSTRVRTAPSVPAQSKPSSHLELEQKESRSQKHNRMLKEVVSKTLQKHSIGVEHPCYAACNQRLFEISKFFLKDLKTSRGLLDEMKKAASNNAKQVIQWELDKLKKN

[2] = biological target: Treslin/MTBP complex (Xenopus laevis (endogenous in egg extract)) (UniProt D3IUT5+Q6NRW0)
[3] = biological target: T2, Cdc45 (Xenopus laevis (endogenous in egg extract)), Q9YHZ6; conditions: remark: other sources report otherwise
T2 chain: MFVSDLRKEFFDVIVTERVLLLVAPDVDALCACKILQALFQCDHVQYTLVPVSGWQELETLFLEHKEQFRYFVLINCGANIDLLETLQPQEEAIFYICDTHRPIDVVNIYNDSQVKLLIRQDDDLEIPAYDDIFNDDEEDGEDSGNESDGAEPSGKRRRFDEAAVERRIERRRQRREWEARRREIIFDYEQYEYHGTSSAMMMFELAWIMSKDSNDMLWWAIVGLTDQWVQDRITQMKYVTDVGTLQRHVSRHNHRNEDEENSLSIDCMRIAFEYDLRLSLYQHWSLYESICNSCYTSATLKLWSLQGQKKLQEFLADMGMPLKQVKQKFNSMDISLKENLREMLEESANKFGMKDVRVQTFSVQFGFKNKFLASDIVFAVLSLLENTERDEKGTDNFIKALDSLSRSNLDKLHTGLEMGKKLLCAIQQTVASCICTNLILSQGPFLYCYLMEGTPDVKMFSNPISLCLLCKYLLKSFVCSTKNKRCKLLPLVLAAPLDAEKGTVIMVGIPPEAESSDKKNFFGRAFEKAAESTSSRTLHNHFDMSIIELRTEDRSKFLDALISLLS

[4] = biological target: T3, Xenopus laevis DONSON (Xenopus laevis (endogenous in egg extract)), Q5U4U4; conditions: remark: other sources report otherwise
T3 chain: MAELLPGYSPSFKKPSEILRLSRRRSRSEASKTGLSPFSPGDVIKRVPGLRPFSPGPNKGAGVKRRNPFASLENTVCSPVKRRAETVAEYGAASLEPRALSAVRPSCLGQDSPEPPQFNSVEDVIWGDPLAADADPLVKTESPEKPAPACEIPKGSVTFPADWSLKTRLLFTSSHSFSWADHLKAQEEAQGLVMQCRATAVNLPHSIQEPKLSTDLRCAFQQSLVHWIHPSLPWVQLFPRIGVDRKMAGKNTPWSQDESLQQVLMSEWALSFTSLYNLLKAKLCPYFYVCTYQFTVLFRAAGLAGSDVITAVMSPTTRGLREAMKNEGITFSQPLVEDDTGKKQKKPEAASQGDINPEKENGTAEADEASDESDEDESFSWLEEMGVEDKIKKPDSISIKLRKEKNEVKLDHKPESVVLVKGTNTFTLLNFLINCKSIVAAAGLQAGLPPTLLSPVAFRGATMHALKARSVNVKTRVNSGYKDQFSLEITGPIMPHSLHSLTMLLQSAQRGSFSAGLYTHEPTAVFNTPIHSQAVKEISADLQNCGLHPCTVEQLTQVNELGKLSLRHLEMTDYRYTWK

## Treslin/MTBP complex (from UniProt D3IUT5 1-1985; Q6NRW0 1-860)
[1]
  binding: binds

B1: Xenopus laevis DONSON (protein, UniProt Q5U4U4 1-579)
chain: MAELLPGYSPSFKKPSEILRLSRRRSRSEASKTGLSPFSPGDVIKRVPGLRPFSPGPNKGAGVKRRNPFASLENTVCSPVKRRAETVAEYGAASLEPRALSAVRPSCLGQDSPEPPQFNSVEDVIWGDPLAADADPLVKTESPEKPAPACEIPKGSVTFPADWSLKTRLLFTSSHSFSWADHLKAQEEAQGLVMQCRATAVNLPHSIQEPKLSTDLRCAFQQSLVHWIHPSLPWVQLFPRIGVDRKMAGKNTPWSQDESLQQVLMSEWALSFTSLYNLLKAKLCPYFYVCTYQFTVLFRAAGLAGSDVITAVMSPTTRGLREAMKNEGITFSQPLVEDDTGKKQKKPEAASQGDINPEKENGTAEADEASDESDEDESFSWLEEMGVEDKIKKPDSISIKLRKEKNEVKLDHKPESVVLVKGTNTFTLLNFLINCKSIVAAAGLQAGLPPTLLSPVAFRGATMHALKARSVNVKTRVNSGYKDQFSLEITGPIMPHSLHSLTMLLQSAQRGSFSAGLYTHEPTAVFNTPIHSQAVKEISADLQNCGLHPCTVEQLTQVNELGKLSLRHLEMTDYRYTWK
[2]
  binding: binds

B2: Xenopus laevis DONSON, Q5U4U4 1-579 (protein)
chain: MAELLPGYSPSFKKPSEILRLSRRRSRSEASKTGLSPFSPGDVIKRVPGLRPFSPGPNKGAGVKRRNPFASLENTVCSPVKRRAETVAEYGAASLEPRALSAVRPSCLGQDSPEPPQFNSVEDVIWGDPLAADADPLVKTESPEKPAPACEIPKGSVTFPADWSLKTRLLFTSSHSFSWADHLKAQEEAQGLVMQCRATAVNLPHSIQEPKLSTDLRCAFQQSLVHWIHPSLPWVQLFPRIGVDRKMAGKNTPWSQDESLQQVLMSEWALSFTSLYNLLKAKLCPYFYVCTYQFTVLFRAAGLAGSDVITAVMSPTTRGLREAMKNEGITFSQPLVEDDTGKKQKKPEAASQGDINPEKENGTAEADEASDESDEDESFSWLEEMGVEDKIKKPDSISIKLRKEKNEVKLDHKPESVVLVKGTNTFTLLNFLINCKSIVAAAGLQAGLPPTLLSPVAFRGATMHALKARSVNVKTRVNSGYKDQFSLEITGPIMPHSLHSLTMLLQSAQRGSFSAGLYTHEPTAVFNTPIHSQAVKEISADLQNCGLHPCTVEQLTQVNELGKLSLRHLEMTDYRYTWK
[3]
  binding: binds

B3: Cdc45, Q9YHZ6 1-567 (protein)
chain: MFVSDLRKEFFDVIVTERVLLLVAPDVDALCACKILQALFQCDHVQYTLVPVSGWQELETLFLEHKEQFRYFVLINCGANIDLLETLQPQEEAIFYICDTHRPIDVVNIYNDSQVKLLIRQDDDLEIPAYDDIFNDDEEDGEDSGNESDGAEPSGKRRRFDEAAVERRIERRRQRREWEARRREIIFDYEQYEYHGTSSAMMMFELAWIMSKDSNDMLWWAIVGLTDQWVQDRITQMKYVTDVGTLQRHVSRHNHRNEDEENSLSIDCMRIAFEYDLRLSLYQHWSLYESICNSCYTSATLKLWSLQGQKKLQEFLADMGMPLKQVKQKFNSMDISLKENLREMLEESANKFGMKDVRVQTFSVQFGFKNKFLASDIVFAVLSLLENTERDEKGTDNFIKALDSLSRSNLDKLHTGLEMGKKLLCAIQQTVASCICTNLILSQGPFLYCYLMEGTPDVKMFSNPISLCLLCKYLLKSFVCSTKNKRCKLLPLVLAAPLDAEKGTVIMVGIPPEAESSDKKNFFGRAFEKAAESTSSRTLHNHFDMSIIELRTEDRSKFLDALISLLS
[4]
  binding: binds

Reference: PMC10570026
